Measurements published in PubChem BioAssay (EPA / NIEHS).
Inconclusive results, whose numbers are uncertain, are shown with a selection of clear calls. A potency beside an inconclusive call is a rough fit, not a confirmed value. The source made the active and inactive calls. The calls were made as follows: active = hit-call score of the fitted dose curve at least 0.9, where 1 is the maximum; inconclusive = response in the unintended direction; inactive = score below 0.9.

Chains of the proteins cited; added tags and fusions are not shown. Lines headed by an entry give the natural chain unless they say otherwise; changes in a name come on top.
UniProt P46098, whole entry, looked up: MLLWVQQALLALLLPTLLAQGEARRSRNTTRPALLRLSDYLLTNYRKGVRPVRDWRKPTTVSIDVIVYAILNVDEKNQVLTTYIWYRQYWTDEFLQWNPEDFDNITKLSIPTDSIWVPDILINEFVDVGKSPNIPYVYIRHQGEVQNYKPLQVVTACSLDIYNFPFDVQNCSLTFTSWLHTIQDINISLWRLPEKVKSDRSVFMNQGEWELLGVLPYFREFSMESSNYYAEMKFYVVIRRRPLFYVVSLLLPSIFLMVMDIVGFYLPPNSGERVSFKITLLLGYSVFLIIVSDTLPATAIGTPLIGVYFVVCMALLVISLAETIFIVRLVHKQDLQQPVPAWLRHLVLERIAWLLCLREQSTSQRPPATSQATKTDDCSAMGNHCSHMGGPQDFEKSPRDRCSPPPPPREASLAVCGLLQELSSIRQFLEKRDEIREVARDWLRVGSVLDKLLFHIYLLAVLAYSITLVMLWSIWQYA
UniProt P62813: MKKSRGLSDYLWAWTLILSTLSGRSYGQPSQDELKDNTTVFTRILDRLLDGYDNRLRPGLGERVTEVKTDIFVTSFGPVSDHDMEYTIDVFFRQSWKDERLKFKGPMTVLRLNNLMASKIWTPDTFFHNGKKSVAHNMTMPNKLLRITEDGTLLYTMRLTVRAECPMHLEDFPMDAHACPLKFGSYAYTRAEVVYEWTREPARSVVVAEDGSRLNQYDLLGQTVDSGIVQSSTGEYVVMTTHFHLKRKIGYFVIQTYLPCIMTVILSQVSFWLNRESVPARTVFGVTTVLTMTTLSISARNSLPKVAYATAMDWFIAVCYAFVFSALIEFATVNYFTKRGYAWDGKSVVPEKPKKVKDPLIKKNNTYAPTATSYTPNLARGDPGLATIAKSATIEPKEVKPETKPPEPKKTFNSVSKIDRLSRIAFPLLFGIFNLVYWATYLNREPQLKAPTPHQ

target: human Serotonin, 5-Hydroxytryptamine Receptor 3 (5HT3), HTR3A (gene 3359) (UniProt P46098); assay: NVS_LGIC_h5HT3: NovaScreen (NVS) Ligand-Gated Ion Channel Assay for human Serotonin, 5-Hydroxytryptamine Receptor 3 (5HT3) (AID 2283325)
Method in brief: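 Radioligand displacement binding to human 5-HT3 from HEK293 membranes, read by filter-based scintillation counting after 1 h. Screen at 25 uM in duplicate; chemicals passing threshold were retested in concentration-response up to 50 uM.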

Row | Compound | AC50
1 | O=C1O[C@H]([C@@H](O)CO)C(O)=C1O | inconclusive: 25 µM
2 | CCCCCCCCCCCC[N+](C)(C)C | inconclusive: 25 µM
3 | CN(C)CCCN1c2ccccc2Sc2ccc(Cl)cc21 | active: 25 µM

target: rat Gamma-Aminobutyric Acid Type A Receptor, Non-Selective (GABAR-NonSelective), Gabra1 (gene 29705) (UniProt P62813); assay: NVS_LGIC_rGABAR_NonSelective: NovaScreen (NVS) Ligand-Gated Ion Channel Assay for rat Gamma-Aminobutyric Acid Type A Receptor, Non-Selective (GABAR-NonSelective) (AID 2283326)
Method in brief: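 Radioligand displacement on rat whole-brain extract, 1 h, filter scintillation readout; signal loss fitted versus DMSO. Primary screen in duplicate at 25 uM; hits (e.g. ≥30% inhibition) retested in concentration-response up to 50 uM.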

Row | Compound | AC50 | outcome
4 | Cc1[nH]cnc1C[C@H]1CCc2c(C)c3ccccc3n2C1=O | inconclusive: 11.9 µM | –
5 | CNCc1ccc(NC(=O)c2c[nH]c3c2C(=O)CCC3)cc1 | – | inactive
6 | Cn1cnc2c1c(=O)[nH]c(=O)n2C | inconclusive: 0.65 µM | –
7 | Cc1ccc([N+](=O)[O-])cc1N | active: 13.8 µM | –
8 | O=C(N[C@@H](Cc1ccccc1)[C@@H](O)C(=O)N1C[C@@H](O)[C@@H](O)C1)c1cc2cc(Cl)ccc2[nH]1 | inconclusive: 42.1 µM | –

target: rat Glutamate, NMDA Agonist Site (GluNMDA), Grin1 (gene 24408) (UniProt P35439); assay: NVS_LGIC_rGluNMDA_Agonist: NovaScreen (NVS) Ligand-Gated Ion Channel Assay for rat Glutamate, NMDA Agonist Site (GluNMDA) (AID 2283327)
Method in brief: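 Rat forebrain membranes, radioligand binding in the agonist-site protocol; 1 h after dosing; filter-based scintillation counting. Single-concentration duplicate screen at 25 uM, then concentration-response up to 50 uM for actives; gain-of-signal vs DMSO.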

Row | Compound | AC50
9 | CCCCC(CC)COC(=O)CC(C(=O)OCC(CC)CCCC)S(=O)(=O)O (stereo unspecified) | active: 38.3 µM
10 | NC(N)=O | inconclusive: 25 µM
11 | Nc1nc(N)c2nc(CNc3ccc(C(=O)N[C@@H](CCC(=O)O)C(=O)O)cc3)cnc2n1 | inconclusive: 0.00229 µM
